{"sequences": {"note": "Amino acid sequences for entries named in this document (tags omitted). A change or cut given only in a name is not applied to a line headed by its entry.", "UniProt O35423": "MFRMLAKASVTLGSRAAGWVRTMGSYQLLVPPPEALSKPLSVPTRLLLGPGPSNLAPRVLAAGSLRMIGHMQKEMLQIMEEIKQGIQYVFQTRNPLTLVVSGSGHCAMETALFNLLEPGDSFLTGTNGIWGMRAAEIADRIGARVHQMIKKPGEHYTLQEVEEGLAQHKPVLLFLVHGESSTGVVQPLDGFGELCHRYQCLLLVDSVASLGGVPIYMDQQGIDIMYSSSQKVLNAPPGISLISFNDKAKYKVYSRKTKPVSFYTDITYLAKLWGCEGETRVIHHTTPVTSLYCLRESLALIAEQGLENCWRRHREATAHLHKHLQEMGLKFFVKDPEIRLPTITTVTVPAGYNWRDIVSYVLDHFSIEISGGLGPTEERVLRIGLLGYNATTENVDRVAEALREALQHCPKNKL", "UniProt O35344, whole entry": "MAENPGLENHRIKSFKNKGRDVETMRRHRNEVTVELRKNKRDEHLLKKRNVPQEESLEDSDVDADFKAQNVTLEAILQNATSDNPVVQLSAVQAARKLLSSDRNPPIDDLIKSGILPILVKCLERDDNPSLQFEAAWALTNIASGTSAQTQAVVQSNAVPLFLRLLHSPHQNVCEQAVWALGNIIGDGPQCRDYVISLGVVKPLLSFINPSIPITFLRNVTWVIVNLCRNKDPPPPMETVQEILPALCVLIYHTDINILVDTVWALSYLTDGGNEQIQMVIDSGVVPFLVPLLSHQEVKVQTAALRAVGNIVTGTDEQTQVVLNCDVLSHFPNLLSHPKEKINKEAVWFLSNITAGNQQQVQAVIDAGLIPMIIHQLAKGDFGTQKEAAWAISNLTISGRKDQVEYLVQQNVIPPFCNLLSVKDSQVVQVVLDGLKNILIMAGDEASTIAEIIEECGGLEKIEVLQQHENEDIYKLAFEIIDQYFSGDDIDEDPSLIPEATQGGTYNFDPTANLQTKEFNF", "UniProt O89017": "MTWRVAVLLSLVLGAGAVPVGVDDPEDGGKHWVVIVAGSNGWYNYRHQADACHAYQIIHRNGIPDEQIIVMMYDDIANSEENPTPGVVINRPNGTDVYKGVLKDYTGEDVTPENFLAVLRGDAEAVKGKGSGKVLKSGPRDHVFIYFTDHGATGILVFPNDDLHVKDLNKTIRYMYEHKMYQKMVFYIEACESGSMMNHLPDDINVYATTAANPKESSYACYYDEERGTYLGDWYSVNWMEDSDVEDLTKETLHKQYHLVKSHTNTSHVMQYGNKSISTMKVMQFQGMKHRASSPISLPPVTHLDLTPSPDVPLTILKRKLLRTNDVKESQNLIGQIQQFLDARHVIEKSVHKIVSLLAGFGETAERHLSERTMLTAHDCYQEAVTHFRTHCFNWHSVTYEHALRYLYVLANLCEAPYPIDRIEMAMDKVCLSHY", "UniProt G5E870": "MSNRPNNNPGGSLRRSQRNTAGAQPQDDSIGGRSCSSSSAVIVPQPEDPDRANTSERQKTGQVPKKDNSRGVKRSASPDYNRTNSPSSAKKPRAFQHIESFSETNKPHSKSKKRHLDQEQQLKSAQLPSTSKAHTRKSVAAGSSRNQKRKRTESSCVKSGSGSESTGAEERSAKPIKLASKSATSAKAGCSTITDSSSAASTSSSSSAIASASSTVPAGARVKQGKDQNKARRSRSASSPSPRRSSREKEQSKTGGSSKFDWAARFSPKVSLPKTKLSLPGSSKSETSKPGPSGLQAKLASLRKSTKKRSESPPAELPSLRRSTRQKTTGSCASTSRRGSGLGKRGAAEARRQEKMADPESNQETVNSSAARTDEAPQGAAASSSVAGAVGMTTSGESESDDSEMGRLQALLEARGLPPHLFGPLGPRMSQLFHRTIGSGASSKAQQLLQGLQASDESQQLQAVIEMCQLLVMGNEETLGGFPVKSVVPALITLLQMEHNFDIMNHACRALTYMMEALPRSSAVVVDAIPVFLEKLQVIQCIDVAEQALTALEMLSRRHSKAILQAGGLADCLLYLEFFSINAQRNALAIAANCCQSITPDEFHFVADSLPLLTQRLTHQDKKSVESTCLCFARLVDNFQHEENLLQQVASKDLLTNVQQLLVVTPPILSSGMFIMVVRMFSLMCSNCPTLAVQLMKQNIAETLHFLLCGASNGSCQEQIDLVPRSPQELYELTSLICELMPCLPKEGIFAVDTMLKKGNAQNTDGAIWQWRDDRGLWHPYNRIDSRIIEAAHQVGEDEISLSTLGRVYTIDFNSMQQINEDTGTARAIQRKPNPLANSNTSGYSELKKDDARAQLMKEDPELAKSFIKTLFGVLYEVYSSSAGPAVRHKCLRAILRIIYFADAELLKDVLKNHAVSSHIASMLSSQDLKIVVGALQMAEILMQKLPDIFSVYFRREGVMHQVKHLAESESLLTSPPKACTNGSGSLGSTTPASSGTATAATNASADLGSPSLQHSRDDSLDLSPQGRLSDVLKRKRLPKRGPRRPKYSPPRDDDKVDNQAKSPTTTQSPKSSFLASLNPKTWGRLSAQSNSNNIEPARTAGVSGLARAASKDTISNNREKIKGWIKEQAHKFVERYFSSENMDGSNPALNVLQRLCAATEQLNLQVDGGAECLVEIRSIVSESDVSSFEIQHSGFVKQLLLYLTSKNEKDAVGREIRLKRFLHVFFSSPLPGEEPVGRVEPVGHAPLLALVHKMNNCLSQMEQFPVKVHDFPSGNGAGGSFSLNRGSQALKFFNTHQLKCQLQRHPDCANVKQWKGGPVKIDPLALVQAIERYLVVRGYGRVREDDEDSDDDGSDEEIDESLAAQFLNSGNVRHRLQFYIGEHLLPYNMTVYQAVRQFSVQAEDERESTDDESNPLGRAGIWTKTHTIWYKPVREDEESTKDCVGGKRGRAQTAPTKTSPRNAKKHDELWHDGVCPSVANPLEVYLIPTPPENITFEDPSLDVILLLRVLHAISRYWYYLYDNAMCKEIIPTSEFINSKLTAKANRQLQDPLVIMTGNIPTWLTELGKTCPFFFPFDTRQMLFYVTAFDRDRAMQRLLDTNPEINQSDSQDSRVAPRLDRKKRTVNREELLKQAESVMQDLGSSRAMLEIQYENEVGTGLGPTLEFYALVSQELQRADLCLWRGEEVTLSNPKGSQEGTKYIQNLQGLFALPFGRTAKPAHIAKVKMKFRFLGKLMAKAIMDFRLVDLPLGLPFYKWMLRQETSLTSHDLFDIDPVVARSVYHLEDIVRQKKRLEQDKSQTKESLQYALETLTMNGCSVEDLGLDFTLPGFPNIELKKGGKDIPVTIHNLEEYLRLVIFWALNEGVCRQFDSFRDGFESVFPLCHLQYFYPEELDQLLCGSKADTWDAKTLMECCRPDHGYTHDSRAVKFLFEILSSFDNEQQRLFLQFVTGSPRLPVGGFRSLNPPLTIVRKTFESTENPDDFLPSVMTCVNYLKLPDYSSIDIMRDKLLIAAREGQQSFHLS", "UniProt O08715": "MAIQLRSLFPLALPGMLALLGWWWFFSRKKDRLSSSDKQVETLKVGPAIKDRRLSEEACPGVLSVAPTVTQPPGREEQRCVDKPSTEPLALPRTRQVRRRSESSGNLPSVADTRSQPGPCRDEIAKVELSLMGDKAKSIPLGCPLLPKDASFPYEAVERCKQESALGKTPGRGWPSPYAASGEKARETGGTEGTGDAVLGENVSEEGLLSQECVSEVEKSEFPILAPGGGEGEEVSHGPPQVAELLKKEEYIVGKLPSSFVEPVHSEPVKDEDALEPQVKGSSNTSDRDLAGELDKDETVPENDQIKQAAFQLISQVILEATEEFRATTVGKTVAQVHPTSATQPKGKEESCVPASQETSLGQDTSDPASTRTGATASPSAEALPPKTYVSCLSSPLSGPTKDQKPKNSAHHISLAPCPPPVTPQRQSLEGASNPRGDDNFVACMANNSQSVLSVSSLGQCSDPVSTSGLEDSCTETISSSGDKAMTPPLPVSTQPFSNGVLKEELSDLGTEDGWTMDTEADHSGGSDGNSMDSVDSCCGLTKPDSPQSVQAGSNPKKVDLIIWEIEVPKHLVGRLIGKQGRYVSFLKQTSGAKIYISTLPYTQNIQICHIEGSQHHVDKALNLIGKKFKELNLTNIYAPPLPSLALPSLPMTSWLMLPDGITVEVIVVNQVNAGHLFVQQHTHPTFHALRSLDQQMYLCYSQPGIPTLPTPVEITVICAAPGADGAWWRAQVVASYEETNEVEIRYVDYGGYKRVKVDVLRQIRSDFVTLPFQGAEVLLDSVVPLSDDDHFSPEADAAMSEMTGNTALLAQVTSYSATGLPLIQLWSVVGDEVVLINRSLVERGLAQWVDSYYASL", "UniProt O70172": "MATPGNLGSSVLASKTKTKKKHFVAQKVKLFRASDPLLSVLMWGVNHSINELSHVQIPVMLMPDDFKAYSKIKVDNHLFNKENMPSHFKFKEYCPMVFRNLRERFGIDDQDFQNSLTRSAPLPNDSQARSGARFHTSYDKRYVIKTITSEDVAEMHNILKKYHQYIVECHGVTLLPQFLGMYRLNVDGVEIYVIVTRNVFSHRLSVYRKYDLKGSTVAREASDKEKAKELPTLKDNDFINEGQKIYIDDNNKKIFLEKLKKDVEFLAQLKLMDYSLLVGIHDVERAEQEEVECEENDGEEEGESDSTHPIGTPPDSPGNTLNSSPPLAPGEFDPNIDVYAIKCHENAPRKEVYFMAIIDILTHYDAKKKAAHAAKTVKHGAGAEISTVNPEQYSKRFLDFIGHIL", "UniProt O88844, whole entry": "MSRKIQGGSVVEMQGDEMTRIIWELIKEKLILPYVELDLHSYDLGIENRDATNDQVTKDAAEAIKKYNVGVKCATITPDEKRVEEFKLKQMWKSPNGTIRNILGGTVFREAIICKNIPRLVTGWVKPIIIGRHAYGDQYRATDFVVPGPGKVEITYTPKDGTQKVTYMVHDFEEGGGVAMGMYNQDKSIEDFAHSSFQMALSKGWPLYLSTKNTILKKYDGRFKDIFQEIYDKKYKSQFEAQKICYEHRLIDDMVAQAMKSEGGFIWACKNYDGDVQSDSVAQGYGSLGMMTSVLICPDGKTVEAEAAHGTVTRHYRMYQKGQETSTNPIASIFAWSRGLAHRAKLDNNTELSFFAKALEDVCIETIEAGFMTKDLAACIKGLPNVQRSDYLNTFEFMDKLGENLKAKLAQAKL", "UniProt O55003, whole entry": "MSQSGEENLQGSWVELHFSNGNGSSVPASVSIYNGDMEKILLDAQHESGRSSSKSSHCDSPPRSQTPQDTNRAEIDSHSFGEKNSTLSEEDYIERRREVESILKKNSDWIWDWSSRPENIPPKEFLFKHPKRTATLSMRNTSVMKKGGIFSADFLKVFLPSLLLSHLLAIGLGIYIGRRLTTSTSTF", "UniProt O88696, whole entry": "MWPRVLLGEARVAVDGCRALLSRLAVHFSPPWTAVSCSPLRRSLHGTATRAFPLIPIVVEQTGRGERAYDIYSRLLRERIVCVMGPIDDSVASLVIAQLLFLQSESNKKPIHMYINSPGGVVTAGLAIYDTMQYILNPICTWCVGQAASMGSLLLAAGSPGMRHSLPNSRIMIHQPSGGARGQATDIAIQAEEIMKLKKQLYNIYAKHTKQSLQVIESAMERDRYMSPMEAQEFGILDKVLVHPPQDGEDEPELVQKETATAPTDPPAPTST", "UniProt O88876": "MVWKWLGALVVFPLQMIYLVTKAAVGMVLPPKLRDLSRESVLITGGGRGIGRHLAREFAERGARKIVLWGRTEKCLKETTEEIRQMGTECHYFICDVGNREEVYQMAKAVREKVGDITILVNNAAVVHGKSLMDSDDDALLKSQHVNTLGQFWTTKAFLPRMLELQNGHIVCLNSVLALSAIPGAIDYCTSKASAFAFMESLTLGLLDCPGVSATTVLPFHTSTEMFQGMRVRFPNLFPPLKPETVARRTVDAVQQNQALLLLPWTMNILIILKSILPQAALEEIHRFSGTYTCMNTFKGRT", "UniProt O08529": "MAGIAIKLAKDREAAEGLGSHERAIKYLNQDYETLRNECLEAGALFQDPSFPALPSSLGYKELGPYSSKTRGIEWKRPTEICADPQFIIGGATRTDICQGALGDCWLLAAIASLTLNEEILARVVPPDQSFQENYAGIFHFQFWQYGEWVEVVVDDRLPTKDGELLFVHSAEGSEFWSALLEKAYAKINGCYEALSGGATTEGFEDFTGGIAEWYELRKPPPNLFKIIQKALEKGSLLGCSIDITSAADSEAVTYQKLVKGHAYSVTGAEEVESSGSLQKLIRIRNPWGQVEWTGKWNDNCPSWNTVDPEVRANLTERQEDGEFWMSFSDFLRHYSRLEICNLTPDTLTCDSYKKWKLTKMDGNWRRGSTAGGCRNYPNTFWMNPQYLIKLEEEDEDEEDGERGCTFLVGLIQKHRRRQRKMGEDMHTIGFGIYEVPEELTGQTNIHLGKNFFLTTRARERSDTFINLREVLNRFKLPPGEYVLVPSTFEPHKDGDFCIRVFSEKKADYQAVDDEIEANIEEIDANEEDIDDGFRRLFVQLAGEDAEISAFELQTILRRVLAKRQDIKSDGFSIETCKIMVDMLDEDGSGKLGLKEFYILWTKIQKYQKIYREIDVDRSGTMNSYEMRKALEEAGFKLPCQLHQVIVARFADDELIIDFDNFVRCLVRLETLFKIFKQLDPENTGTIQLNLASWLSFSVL"}, "source": "the supplement of paper PMC12819154", "about": "“High-throughput peptide-centric local stability assay extends protein–ligand identification to membrane proteins, tissues and bacteria” (Nature Structural & Molecular Biology, 2025)", "note": "The other results are listed elsewhere or left out. Most entries show no effect beyond the scatter of the controls."}
{"compound": "CN[C@@H]1C[C@H]2O[C@@](C)([C@@H]1OC)n1c3ccccc3c3c4c(c5c6ccccc6n2c5c31)C(=O)NC4 [staurosporine]", "assay": "log2 fold change of pooled soluble protein (PISA), ligand vs vehicle (log2 ratio); higher = more thermally stabilized", "settings": "ligand concentration: 20 uM; assay format: PISA pool 52.9/55.5/58.6 C"}
{"target": "UniProt O35423", "log2 fold change of pooled soluble protein": 0.0273}
{"target": "UniProt O54734", "log2 fold change of pooled soluble protein": -0.148}
{"target": "UniProt O54750", "log2 fold change of pooled soluble protein": -0.32}
{"target": "UniProt O88428", "log2 fold change of pooled soluble protein": -0.009}
{"target": "UniProt O88441", "log2 fold change of pooled soluble protein": 0.0218}
{"target": "UniProt O35344", "log2 fold change of pooled soluble protein": -0.33}
{"target": "UniProt O89017", "log2 fold change of pooled soluble protein": -0.0054}
{"target": "UniProt O54983", "log2 fold change of pooled soluble protein": 0.0672}
{"target": "UniProt O88829", "log2 fold change of pooled soluble protein": -0.000194}
{"target": "UniProt G5E870", "log2 fold change of pooled soluble protein": -0.0159}
{"target": "UniProt O55026", "log2 fold change of pooled soluble protein": -0.4}
{"target": "UniProt O35691", "log2 fold change of pooled soluble protein": 0.00992}
{"target": "UniProt O35309", "log2 fold change of pooled soluble protein": 0.0339}
{"target": "UniProt O35639", "log2 fold change of pooled soluble protein": 0.169}
{"target": "UniProt O08715", "log2 fold change of pooled soluble protein": -0.0588}
{"target": "UniProt O70404", "log2 fold change of pooled soluble protein": -0.105}
{"target": "UniProt O70172", "log2 fold change of pooled soluble protein": -0.231}
{"target": "UniProt O88844", "log2 fold change of pooled soluble protein": -0.0516}
{"target": "UniProt O55003", "log2 fold change of pooled soluble protein": -0.247}
{"target": "UniProt O55125", "log2 fold change of pooled soluble protein": 0.633}
{"target": "UniProt O35381", "log2 fold change of pooled soluble protein": -0.0517}
{"target": "UniProt O88696", "log2 fold change of pooled soluble protein": -0.217}
{"target": "UniProt G5E8Q8", "log2 fold change of pooled soluble protein": 0.194}
{"target": "UniProt O88876", "log2 fold change of pooled soluble protein": 0.0434}
{"target": "UniProt O89023", "log2 fold change of pooled soluble protein": -0.205}
{"target": "UniProt O35887", "log2 fold change of pooled soluble protein": 0.166}
{"target": "UniProt O88569", "log2 fold change of pooled soluble protein": 0.00944}
{"target": "UniProt P01631", "log2 fold change of pooled soluble protein": -0.21}
{"target": "UniProt O89051", "log2 fold change of pooled soluble protein": 0.146}
{"target": "UniProt O35516", "log2 fold change of pooled soluble protein": 0.0663}
{"target": "UniProt O88796", "log2 fold change of pooled soluble protein": 0.192}
{"target": "UniProt O35126", "log2 fold change of pooled soluble protein": 0.0534}
{"target": "UniProt O54909", "log2 fold change of pooled soluble protein": 0.385}
{"target": "UniProt P01592", "log2 fold change of pooled soluble protein": 0.0127}
{"target": "UniProt O08529", "log2 fold change of pooled soluble protein": -0.104}
{"target": "UniProt O70494", "log2 fold change of pooled soluble protein": 0.168}
